Results are given in words; binding and its absence hold for the method and conditions named. In cells and extracts the contact can be indirect. Here binding means that the protein was enriched with, or labelled near, the bait; the list need not be complete.

Experimental findings from paper doi:10.1101/2021.02.10.429309 are described below.

For the assay, the target named is 3×HA-tagged KRAS (KRAS-4B) (UniProt P01116). Nature of the assay: affinity purification with mass spectrometry.

B1: Ras GTPase-activating protein-binding protein 2 (protein, UniProt Q9UN86 1-482)
chain: MVMEKPSPLLVGREFVRQYYTLLNKAPEYLHRFYGRNSSYVHGGVDASGKPQEAVYGQNDIHHKVLSLNFSECHTKIRHVDAHATLSDGVVVQVMGLLSNSGQPERKFMQTFVLAPEGSVPNKFYVHNDMFRYEDEVFGDSEPELDEESEDEVEEEQEERQPSPEPVQENANSGYYEAHPVTNGIEEPLEESSHEPEPEPESETKTEELKPQVEEKNLEELEEKSTTPPPAEPVSLPQEPPKAFSWASVTSKNLPPSGTVSSSGIPPHVKAPVSQPRVEAKPEVQSQPPRVREQRPRERPGFPPRGPRPGRGDMEQNDSDNRRIIRYPDSHQLFVGNLPHDIDENELKEFFMSFGNVVELRINTKGVGGKLPNFGFVVFDDSEPVQRILIAKPIMFRGEVRLNVEEKKTRAARERETRGGGDDRRDIRRNDRGPGGPRGIVGGGMMRDRDGRGPPPRGGMAQKLGSGRGTGQMEGRFTGQRR
B1: the binding entry was “binds”.
